At least one compound was matched to its structure with a doubt left.
Test: activity compared to Compound [I] (assay not specified)

SMILES: CC[C@H]1OC(=O)[C@H](C)[C@@H](O[C@@H]2C[C@@](C)(OC)[C@@H](O)[C@H](C)O2)[C@H](C)[C@@H](O[C@@H]2O[C@H](C)C[C@H](N(C)C)[C@H]2OC(=O)OCc2ccc(O[C@@H]3O[C@H](CO)[C@H](O)[C@H](O)[C@H]3O)c([N+](=O)[O-])c2)[C@](C)(O)C[C@@H](C)CN(C)[C@H](C)[C@@H](O)[C@]1(C)O [Compound [II], [(2S,3R,4S,6R)-4-(dimethylamino)-2-[[(2R,3S,4R,5R,8R,10R,11R,12S,13S,14R)-2-ethyl-3,4,10-trihydroxy-13-[(2S,4R,5S,6S)-5-hydroxy-4-methoxy-4,6-dimethyl-tetrahydropyran-2-yl]oxy-3,5,6,8,10,12,14-heptamethyl-15-oxo-1-oxa-6-azacyclopentadec-11-yl]oxy]-6-methyl-tetrahydropyran-3-yl][3-nitro-4-[(2S,3R,4S,5R,6R)-3,4,5-trihydroxy-6-(hydroxymethyl)tetrahydropyran-2-yl]oxy-phenyl]methyl carbonate]
- activity compared to Compound [I]: comparable activity

Source: patent publication US20260109725A1, “MACROLIDE SENOLYTIC COMPOUNDS” (LUNELLA BIOTECH, INC., priority 2022, published 2026)
